# Results: the supplement of paper PMC8728848
# Some of the results follow.
# How the values were obtained:
# Assay in all cases: glycan array binding signal (z-score within array); higher = stronger binding
# Conditions in all cases: glycan notation: IUPAC condensed, linker removed
# [1] = biological target: Neu5Ac(a2-3)Gal(b1-4)GlcNAc(b1-3)Gal(b1-4)GlcNAc(b1-2)Man(a1-3)[Neu5Ac(a2-3)Gal(b1-4)GlcNAc(b1-3)Gal(b1-4)GlcNAc(b1-2)Man(a1-6)]Man(b1-4)GlcNAc(b1-4)GlcNAc
# In short: (§1)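 The binding signal is a Z-score computed within each array and averaged over linkers. Arrays of the same protein sequence at different concentrations or buffers were also averaged together. Data originate from 3228 arrays in the Consortium for Functional Glycomics database, kept only where the protein sequence was available.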
# [2] = biological target: Neu5Ac(a2-3)Gal(b1-4)GlcNAc(b1-3)Gal(b1-4)GlcNAc(b1-3)Gal(b1-4)GlcNAc
# In short: as §1
# [3] = biological target: Neu5Ac(a2-3)Gal(b1-4)GlcNAc(b1-3)Gal(b1-4)GlcNAc(b1-3)Gal(b1-4)GlcNAc(b1-2)Man(a1-3)[Neu5Ac(a2-3)Gal(b1-4)GlcNAc(b1-3)Gal(b1-4)GlcNAc(b1-3)Gal(b1-4)GlcNAc(b1-2)Man(a1-6)]GalNAc
# In short: as §1
# [4] = biological target: Neu5Ac(a2-3)Gal(b1-4)GlcNAc(b1-3)Gal(b1-4)GlcNAc(b1-3)GalNAc
# In short: as §1
# [5] = biological target: Neu5Ac(a2-3)Gal(b1-4)GlcNAc(b1-3)Gal(b1-4)GlcNAc(b1-3)[Neu5Ac(a2-3)Gal(b1-4)GlcNAc(b1-3)Gal(b1-4)GlcNAc(b1-6)]GalNAc
# In short: as §1
# [6] = biological target: Neu5Ac(a2-3)Gal(b1-4)GlcNAc(b1-3)Gal(b1-4)GlcNAc(b1-6)[Gal(b1-3)]GalNAc
# In short: as §1
# [7] = biological target: Neu5Ac(a2-3)Gal(b1-4)GlcNAc(b1-3)Gal(b1-4)[Fuc(a1-3)]GlcNAc
# In short: as §1
# [8] = biological target: Neu5Ac(a2-3)Gal(b1-4)GlcNAc(b1-3)GalNAc
# In short: as §1
# [9] = biological target: Neu5Ac(a2-3)Gal(b1-4)GlcNAc(b1-3)[Neu5Ac(a2-3)Gal(b1-4)GlcNAc(b1-6)]GalNAc
# In short: as §1
# [10] = biological target: Neu5Ac(a2-3)Gal(b1-4)GlcNAc(b1-6)GalNAc
# In short: as §1
# [11] = biological target: Neu5Ac(a2-3)Gal(b1-4)GlcNAc(b1-6)[Gal(b1-3)]GalNAc
# In short: as §1
# [12] = biological target: Neu5Ac(a2-3)Gal(b1-4)GlcNAc(b1-6)[Neu5Ac(a2-3)Gal(b1-3)]GalNAc
# In short: as §1
# [13] = biological target: Neu5Ac(a2-3)Gal(b1-4)GlcNAc6S
# In short: as §1
# [14] = biological target: Neu5Ac(a2-3)Gal(b1-4)[Fuc(a1-3)]GlcNAc
# In short: as §1
# [15] = biological target: Neu5Ac(a2-3)Gal(b1-4)[Fuc(a1-3)]GlcNAc(b1-2)Man
# In short: as §1
# [16] = biological target: Neu5Ac(a2-3)Gal(b1-4)[Fuc(a1-3)]GlcNAc(b1-3)Gal
# In short: as §1
# [17] = biological target: Neu5Ac(a2-3)Gal(b1-4)[Fuc(a1-3)]GlcNAc(b1-3)Gal(b1-4)GlcNAc
# In short: as §1
# [18] = biological target: Neu5Ac(a2-3)Gal(b1-4)[Fuc(a1-3)]GlcNAc(b1-3)Gal(b1-4)[Fuc(a1-3)]GlcNAc(b1-3)Gal(b1-4)[Fuc(a1-3)]GlcNAc
# In short: as §1
# [19] = biological target: Neu5Ac(a2-3)Gal(b1-4)[Fuc(a1-3)]GlcNAc(b1-3)GalNAc
# In short: as §1
# [20] = biological target: Neu5Ac(a2-3)Gal(b1-4)[Fuc(a1-3)]GlcNAc(b1-6)[Gal(b1-3)]GalNAc
# In short: as §1
# [21] = biological target: Neu5Ac(a2-3)Gal(b1-4)[Fuc(a1-3)]GlcNAc(b1-6)[Neu5Ac(a2-3)Gal(b1-3)]GalNAc
# In short: as §1
# [22] = biological target: Neu5Ac(a2-3)Gal(b1-4)[Fuc(a1-3)]GlcNAc6S
# In short: as §1
# [23] = biological target: Neu5Ac(a2-3)Gal6S(b1-4)GlcNAc
# In short: as §1
# [24] = biological target: Neu5Ac(a2-3)Gal6S(b1-4)[Fuc(a1-3)]GlcNAc
# In short: as §1
# Neu5Ac(a2-3)GalNAc = biological target: Neu5Ac(a2-3)GalNAc
# In short: as §1
# [25] = biological target: Neu5Ac(a2-3)GalNAc(b1-4)GlcNAc
# In short: as §1
# [26] = biological target: Neu5Ac(a2-3)[GalNAc(b1-4)]Gal(b1-4)Glc
# In short: as §1
# [27] = biological target: Neu5Ac(a2-3)[GalNAc(b1-4)]Gal(b1-4)GlcNAc
# In short: as §1
# [28] = biological target: Neu5Ac(a2-3)[GalNAc(b1-4)]Gal(b1-4)GlcNAc(b1-3)GalNAc
# In short: as §1
# [29] = biological target: Neu5Ac(a2-3)[Neu5Ac(a2-6)]GalNAc
# In short: as §1
# Neu5Ac(a2-6)Gal = biological target: Neu5Ac(a2-6)Gal
# In short: as §1
# [30] = biological target: Neu5Ac(a2-6)Gal(b1-3)GlcNAc(b1-3)[Gal(b1-4)GlcNAc(b1-6)]Gal(b1-4)Glc
# In short: as §1
# Neu5Ac(a2-6)Gal(b1-4)Glc = biological target: Neu5Ac(a2-6)Gal(b1-4)Glc
# In short: as §1
# [31] = biological target: Neu5Ac(a2-6)Gal(b1-4)GlcNAc
# In short: as §1
# [32] = biological target: Neu5Ac(a2-6)Gal(b1-4)GlcNAc(b1-2)Man
# In short: as §1
# [33] = biological target: Neu5Ac(a2-6)Gal(b1-4)GlcNAc(b1-2)Man(a1-3)Man(b1-4)GlcNAc(b1-4)GlcNAc
# In short: as §1
# [34] = biological target: Neu5Ac(a2-6)Gal(b1-4)GlcNAc(b1-2)Man(a1-3)[Gal(b1-4)GlcNAc(b1-2)Man(a1-6)]Man(b1-4)GlcNAc(b1-4)GlcNAc
# In short: as §1
# [35] = biological target: Neu5Ac(a2-6)Gal(b1-4)GlcNAc(b1-2)Man(a1-3)[GlcNAc(b1-2)Man(a1-6)]Man(b1-4)GlcNAc(b1-4)GlcNAc
# In short: as §1
binder,measurement,setting,value
"AT3G44510(29) (Arabidopsis thaliana), F4J341 (protein) MEEHLQGRIKLHDGRYLAYKERGVPKDDAKFTIVLVHGFGSSKDMNFNVSQELVNEIGIYFVLYDRAGYGESDPNPKRSLKSEAYDVQELADGLEIGSRFYLIGISMGSYTVWSCLKHIPQRLAGVAMVAPVVNFRWPSIPKSLMPKDYRREVAKWSVWIANYFPGLLQWLVTQNMFSTTSMLEKNPVYFNDQDIEVLKHIKGFPMLTKEKLRERGVFGTLRSDFLVAFGDWDFDPADLPDPSLSGPEKGSSSVHIWQGYEDKVMPFQLQRCLCRKLPWIRYHEVPKGGHLIVHYDGICDAILKSLLLGEDLPMYKPKAVITEPA",glycan array binding signal (z-score),[1],-0.8
same,glycan array binding signal (z-score),[2],-0.657
same,glycan array binding signal (z-score),[3],0.29
same,glycan array binding signal (z-score),[4],-0.224
same,glycan array binding signal (z-score),[5],-0.442
same,glycan array binding signal (z-score),[6],-0.343
same,glycan array binding signal (z-score),[7],-0.1
same,glycan array binding signal (z-score),[8],-0.249
same,glycan array binding signal (z-score),[9],-0.474
same,glycan array binding signal (z-score),[10],-0.429
same,glycan array binding signal (z-score),[11],-0.457
same,glycan array binding signal (z-score),[12],-0.853
same,glycan array binding signal (z-score),[13],-0.36
same,glycan array binding signal (z-score),[14],-0.331
same,glycan array binding signal (z-score),[15],-0.046
same,glycan array binding signal (z-score),[16],-0.706
same,glycan array binding signal (z-score),[17],1.04
same,glycan array binding signal (z-score),[18],0.047
same,glycan array binding signal (z-score),[19],1.12
same,glycan array binding signal (z-score),[20],0.133
same,glycan array binding signal (z-score),[21],-0.199
same,glycan array binding signal (z-score),[22],0.419
same,glycan array binding signal (z-score),[23],1.08
same,glycan array binding signal (z-score),[24],-0.314
same,glycan array binding signal (z-score),Neu5Ac(a2-3)GalNAc,1.08
same,glycan array binding signal (z-score),[25],-0.26
same,glycan array binding signal (z-score),[26],-0.393
same,glycan array binding signal (z-score),[27],-0.12
same,glycan array binding signal (z-score),[28],0.557
same,glycan array binding signal (z-score),[29],0.401
same,glycan array binding signal (z-score),Neu5Ac(a2-6)Gal,-0.251
same,glycan array binding signal (z-score),[30],0.32
same,glycan array binding signal (z-score),Neu5Ac(a2-6)Gal(b1-4)Glc,-0.127
same,glycan array binding signal (z-score),[31],-0.04
same,glycan array binding signal (z-score),[32],0.076
same,glycan array binding signal (z-score),[33],-0.17
same,glycan array binding signal (z-score),[34],0.475
same,glycan array binding signal (z-score),[35],-0.632

# An excerpt of these results, with tabs.
binder	measurement	setting	value
AT3G44510(29) (Arabidopsis thaliana), F4J341 (protein) MEEHLQGRIKLHDGRYLAYKERGVPKDDAKFTIVLVHGFGSSKDMNFNVSQELVNEIGIYFVLYDRAGYGESDPNPKRSLKSEAYDVQELADGLEIGSRFYLIGISMGSYTVWSCLKHIPQRLAGVAMVAPVVNFRWPSIPKSLMPKDYRREVAKWSVWIANYFPGLLQWLVTQNMFSTTSMLEKNPVYFNDQDIEVLKHIKGFPMLTKEKLRERGVFGTLRSDFLVAFGDWDFDPADLPDPSLSGPEKGSSSVHIWQGYEDKVMPFQLQRCLCRKLPWIRYHEVPKGGHLIVHYDGICDAILKSLLLGEDLPMYKPKAVITEPA	glycan array binding signal (z-score)	[21]	-0.199
same	glycan array binding signal (z-score)	[22]	0.419
same	glycan array binding signal (z-score)	[23]	1.08
